Laboratory results taken from patent US20190203210A1.
No constants are given. Whether binding was seen depends on the method and setting. For part of these data: In cells and extracts the contact can be indirect. Some results given as binding are weak or reduced against the parent protein; the word gives no strength. Where a sequence is shown, tags or fusion partners need not be part of it.

By UniProt entry, the sequences of proteins in these tests, tags left out.
UniProt Q7Z6Z7: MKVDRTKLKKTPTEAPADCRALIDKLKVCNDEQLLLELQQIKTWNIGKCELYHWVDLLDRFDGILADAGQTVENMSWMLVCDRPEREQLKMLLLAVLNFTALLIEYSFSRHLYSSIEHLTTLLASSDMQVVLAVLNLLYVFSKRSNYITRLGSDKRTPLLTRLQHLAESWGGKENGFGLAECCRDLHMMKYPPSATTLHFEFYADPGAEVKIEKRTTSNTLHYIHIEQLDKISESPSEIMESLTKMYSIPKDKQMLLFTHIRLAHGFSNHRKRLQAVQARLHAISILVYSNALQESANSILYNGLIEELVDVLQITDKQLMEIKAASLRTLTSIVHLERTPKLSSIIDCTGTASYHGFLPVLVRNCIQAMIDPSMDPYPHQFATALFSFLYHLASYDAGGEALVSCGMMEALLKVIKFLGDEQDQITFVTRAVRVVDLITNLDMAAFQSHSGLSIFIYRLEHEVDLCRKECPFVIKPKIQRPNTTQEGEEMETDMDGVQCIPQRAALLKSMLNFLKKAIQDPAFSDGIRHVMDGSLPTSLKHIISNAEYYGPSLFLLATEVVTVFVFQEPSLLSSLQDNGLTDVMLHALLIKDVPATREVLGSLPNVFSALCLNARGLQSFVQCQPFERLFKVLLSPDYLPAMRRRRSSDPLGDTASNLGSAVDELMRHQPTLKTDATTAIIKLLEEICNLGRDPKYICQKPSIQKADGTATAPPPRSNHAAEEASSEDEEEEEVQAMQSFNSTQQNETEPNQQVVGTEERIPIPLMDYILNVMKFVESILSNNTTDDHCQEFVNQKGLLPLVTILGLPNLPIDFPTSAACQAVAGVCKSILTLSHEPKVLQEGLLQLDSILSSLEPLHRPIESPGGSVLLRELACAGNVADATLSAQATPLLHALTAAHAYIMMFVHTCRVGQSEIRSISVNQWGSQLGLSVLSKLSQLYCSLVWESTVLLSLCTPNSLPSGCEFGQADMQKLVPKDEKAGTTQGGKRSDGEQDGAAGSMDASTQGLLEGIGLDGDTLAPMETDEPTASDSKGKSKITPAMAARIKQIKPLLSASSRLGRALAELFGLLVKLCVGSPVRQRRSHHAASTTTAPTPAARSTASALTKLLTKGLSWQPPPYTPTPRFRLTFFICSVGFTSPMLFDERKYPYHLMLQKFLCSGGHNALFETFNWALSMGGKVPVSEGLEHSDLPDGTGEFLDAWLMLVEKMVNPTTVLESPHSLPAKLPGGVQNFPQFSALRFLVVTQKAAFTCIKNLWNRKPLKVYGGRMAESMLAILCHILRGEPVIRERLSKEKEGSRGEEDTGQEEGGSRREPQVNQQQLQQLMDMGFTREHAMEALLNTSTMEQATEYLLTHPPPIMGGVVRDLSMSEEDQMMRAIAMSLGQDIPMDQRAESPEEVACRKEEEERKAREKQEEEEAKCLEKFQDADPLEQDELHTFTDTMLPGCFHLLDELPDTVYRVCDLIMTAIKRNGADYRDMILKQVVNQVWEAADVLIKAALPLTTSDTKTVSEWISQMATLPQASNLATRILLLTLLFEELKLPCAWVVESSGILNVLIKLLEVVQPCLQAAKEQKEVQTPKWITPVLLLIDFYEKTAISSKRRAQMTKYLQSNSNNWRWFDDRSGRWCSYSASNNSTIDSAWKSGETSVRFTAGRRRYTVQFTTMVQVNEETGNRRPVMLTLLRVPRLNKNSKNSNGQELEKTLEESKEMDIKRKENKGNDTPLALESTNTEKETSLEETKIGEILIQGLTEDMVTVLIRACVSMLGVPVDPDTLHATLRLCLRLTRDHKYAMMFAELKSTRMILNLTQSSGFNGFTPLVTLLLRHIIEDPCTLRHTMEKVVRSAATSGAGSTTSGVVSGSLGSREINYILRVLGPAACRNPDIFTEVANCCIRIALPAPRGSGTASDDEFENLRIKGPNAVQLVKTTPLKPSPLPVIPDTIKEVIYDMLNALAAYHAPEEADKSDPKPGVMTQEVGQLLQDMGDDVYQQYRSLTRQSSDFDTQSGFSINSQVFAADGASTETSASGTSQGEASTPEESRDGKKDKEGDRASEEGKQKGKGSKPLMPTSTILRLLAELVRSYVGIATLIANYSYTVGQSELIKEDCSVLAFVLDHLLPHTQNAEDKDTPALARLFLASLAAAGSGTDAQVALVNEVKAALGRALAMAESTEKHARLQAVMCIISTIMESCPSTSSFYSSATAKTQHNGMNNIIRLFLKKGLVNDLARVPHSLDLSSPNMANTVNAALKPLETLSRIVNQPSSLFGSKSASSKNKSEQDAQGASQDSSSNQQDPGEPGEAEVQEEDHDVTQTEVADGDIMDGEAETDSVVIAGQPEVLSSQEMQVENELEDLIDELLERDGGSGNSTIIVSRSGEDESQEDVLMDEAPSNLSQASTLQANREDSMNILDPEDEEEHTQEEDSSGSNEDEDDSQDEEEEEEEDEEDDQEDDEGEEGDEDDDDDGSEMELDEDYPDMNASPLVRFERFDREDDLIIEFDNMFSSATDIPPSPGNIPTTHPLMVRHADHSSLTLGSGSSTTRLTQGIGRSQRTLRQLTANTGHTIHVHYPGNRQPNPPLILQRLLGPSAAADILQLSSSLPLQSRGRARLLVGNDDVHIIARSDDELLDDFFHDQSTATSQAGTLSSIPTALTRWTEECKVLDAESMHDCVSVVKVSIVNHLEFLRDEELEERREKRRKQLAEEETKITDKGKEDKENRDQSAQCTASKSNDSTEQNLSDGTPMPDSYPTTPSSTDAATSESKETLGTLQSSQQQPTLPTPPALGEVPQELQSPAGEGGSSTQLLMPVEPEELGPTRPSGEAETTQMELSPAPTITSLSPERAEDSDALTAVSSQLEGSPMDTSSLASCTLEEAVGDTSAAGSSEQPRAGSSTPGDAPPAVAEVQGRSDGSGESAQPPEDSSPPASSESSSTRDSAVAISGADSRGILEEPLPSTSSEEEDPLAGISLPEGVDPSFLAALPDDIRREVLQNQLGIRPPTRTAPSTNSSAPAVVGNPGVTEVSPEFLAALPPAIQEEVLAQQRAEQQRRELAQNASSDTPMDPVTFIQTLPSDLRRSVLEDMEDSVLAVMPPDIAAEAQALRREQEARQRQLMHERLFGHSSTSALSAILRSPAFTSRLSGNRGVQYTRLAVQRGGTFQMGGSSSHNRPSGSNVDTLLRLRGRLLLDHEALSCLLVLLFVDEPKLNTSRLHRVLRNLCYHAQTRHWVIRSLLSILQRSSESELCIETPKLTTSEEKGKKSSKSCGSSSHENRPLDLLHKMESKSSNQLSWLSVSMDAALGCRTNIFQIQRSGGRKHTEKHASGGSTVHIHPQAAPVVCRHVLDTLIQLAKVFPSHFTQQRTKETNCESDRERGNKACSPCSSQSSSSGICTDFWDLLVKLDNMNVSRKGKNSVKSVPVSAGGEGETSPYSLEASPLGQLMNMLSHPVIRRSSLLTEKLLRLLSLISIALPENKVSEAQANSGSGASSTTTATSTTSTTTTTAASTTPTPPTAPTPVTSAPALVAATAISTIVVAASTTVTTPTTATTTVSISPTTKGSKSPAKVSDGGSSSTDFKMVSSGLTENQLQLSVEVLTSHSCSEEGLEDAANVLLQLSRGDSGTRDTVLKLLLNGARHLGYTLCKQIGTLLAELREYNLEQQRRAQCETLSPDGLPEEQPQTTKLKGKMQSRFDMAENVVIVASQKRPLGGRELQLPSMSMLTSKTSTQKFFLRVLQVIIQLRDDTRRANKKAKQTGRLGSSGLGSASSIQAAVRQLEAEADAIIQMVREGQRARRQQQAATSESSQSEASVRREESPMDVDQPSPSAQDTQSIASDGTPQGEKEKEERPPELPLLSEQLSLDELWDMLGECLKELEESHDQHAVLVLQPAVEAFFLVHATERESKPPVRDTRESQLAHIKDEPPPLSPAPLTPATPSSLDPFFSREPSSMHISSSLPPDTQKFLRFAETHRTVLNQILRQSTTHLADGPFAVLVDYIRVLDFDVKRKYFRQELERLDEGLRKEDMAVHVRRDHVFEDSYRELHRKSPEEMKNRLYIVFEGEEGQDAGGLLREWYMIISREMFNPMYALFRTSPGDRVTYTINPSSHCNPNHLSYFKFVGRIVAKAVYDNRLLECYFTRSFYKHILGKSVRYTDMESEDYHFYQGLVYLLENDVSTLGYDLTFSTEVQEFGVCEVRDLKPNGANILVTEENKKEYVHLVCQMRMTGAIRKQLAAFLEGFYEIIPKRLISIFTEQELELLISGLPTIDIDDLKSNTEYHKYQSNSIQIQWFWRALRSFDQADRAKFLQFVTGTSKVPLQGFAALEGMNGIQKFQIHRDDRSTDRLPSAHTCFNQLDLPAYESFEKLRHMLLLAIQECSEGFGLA

Key:
FLAG-HA-Atoh1 [1] = biological target: T1, FLAG-HA-Atoh1 (UniProt Q92858); assay: reciprocal co-immunoprecipitation and Western blot, FLAG-HA-Atoh1 293T lysates
T1 sequence (looked up): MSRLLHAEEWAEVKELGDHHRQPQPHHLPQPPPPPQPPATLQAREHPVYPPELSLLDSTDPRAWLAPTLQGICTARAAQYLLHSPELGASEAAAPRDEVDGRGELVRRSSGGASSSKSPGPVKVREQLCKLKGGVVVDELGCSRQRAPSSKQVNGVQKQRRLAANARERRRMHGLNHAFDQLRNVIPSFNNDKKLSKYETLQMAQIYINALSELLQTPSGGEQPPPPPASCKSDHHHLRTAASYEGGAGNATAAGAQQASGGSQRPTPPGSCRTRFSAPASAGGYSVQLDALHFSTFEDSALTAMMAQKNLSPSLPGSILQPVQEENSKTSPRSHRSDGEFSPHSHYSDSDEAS

FLAG-HA-Atoh1 [2] = biological target: T1, FLAG-HA-Atoh1; assay: MS of Coomassie band from FLAG-HA-Atoh1 IP
FLAG-HA-Atoh1 [3] = biological target: T1, FLAG-HA-Atoh1; assay: anti-HA IP of FLAG-HA-Atoh1 293T lysate, LC-MS/MS

binding (FLAG-HA-Atoh1 [1]): binds
binding (FLAG-HA-Atoh1 [2]): binds
binding (FLAG-HA-Atoh1 [3]): binds
Substance: HECT, UBA and WWE domain containing 1 (Huwe1) protein (from UniProt Q7Z6Z7 1-4374) (enzyme)
